# Library screen at single concentrations

Results are given as percent effect.
The record does not define 0% and 100%; most values in the screen are far below 50% and negative numbers occur (in some assays of this library far below -100).
The compounds are a random part of those screened.

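Assay of Toxoplasma gondii numbers, read through their beta-galactosidase reporter with a colour substrate. Concentration: 50 µM. Higher reads as fewer parasites (inferred from which compounds were picked for retests). About 18,000 compounds were tested under these conditions; 0.94% (about 170) showed 50% or more at least once.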

* CC1CN(c2cc(CN)ccn2)CCO1 (centres undefined) | -6.35%
* CC(CCn1cccn1)OC(=O)c1cccnc1 (centres undefined) | 38.55%
* O=C(Cn1cnc2ccccc2c1=O)N1CCCCC1 | -2.909%
* Cn1cc(Cn2nc(-c3ccco3)oc2=O)cn1 | 0.8445%
* CC[C@H](C)NC(=O)c1ccc(N2CCCS2(=O)=O)cc1 | -1.461%
* Cn1c(C2CC2)nc2cc(CN)ccc21 | -4.107%
* COc1ccc(CNCCSc2nnnn2C)cc1 | -6.655%
* CCN(C(=O)Cc1ccsc1)C1CCS(=O)(=O)C1 (centres undefined) | -3.701%
* CNS(=O)(=O)c1cccc(CN)c1 | 0.4241%
* CN(Cc1ncnn1C)C(=O)CCc1cccc(Cl)c1 | -3.006%
* CN1CCc2nc(NC(=O)c3cncc(Br)c3)sc2C1 | -4.285%
* Cn1nccc1NC(=O)N1CCOCC1C1CC1 (centres undefined) | -2.135%
* CN1CCN([C@H]2CN(Cc3ccsc3)C[C@@H]2O)CC1 | 6.458%
* O=C(CN1CCCC1)NCCc1nc(C2CC2)no1 | -6.253%
* Cc1cc(N)n(CC(=O)N[C@@H]2COCC[C@H]2O)n1 | -3.782%
* c1cncc(-c2nc(SCC3CCCCO3)n[nH]2)c1 (centres undefined) | 0.4086%
* CC(C)(C)OC(=O)NCCC1CC(=O)C1 | 5.394%
* Cc1cc(CNC(=O)CN(C)Cc2cccnc2)n[nH]1 | -3.462%
* COc1cc(C(=O)NC(C)CCO)ccc1OC(C)C (centres undefined) | 27.44%
* Cc1ccccc1C(=O)N1CCC2(CC1)OCC(C)O2 (centres undefined) | 13.67%
* NCc1ccc(OC2CCCCC2)nc1 | -6.672%
* O=C(COc1cccc(Cl)c1)NCC1CCS(=O)(=O)C1 (centres undefined) | 0.4555%
* COc1ccc(CN)cn1 | 10.39%
* O=C(NCc1ccccn1)n1ccnc1 | -7.426%
* COc1ccc(C(NCCO)C2CCOCC2)cc1 (centres undefined) | -2.544%
* CCN1C(=O)CN(C(=O)CC(C)C)CC12CCOCC2 | -0.8115%
* Cc1ncsc1C(=O)NCC(C)(C)CN(C)C | 2.619%
* CC(C)NC(=O)CNC(C)Cn1cncn1 (centres undefined) | -20.53%
* Cn1ncc(Cl)c1C(=O)NCCN1CCCCC1 | -5.98%
* N[C@H]1C[C@@H](c2cc(NCCCN3CCCC3)ncn2)C1 | 23.29%
* CCOC(CN)CN | 10.22%
* CN(c1ncnc(N)c1Cl)C1CCC(O)CC1 (centres undefined) | -6.594%
* CNC(=O)c1csc(Br)c1 | -4.85%
* CC(NC(=O)c1cc(Cl)sc1Cl)C(=O)N1CCOCC1 (centres undefined) | 35.5%
* Nc1n[nH]c(SCc2cccnc2)n1 | 4.544%
* CCN(CC)C(=O)C1Cn2cccc2C(=O)N1C (centres undefined) | -7.222%
* CC(CO)CNC(=O)c1cnc(OC(C)C)c(Cl)c1 (centres undefined) | 9.037%
* CC(=O)NCCCNS(=O)(=O)c1cccc(Cl)c1F | -0.8842%
* COCCNC(=O)c1cc(-c2cccc(O)c2)on1 | 2.651%
* CC(=O)N1CCC(CN)CC1 | 8.326%
* Cc1cc(C(=O)N2CCc3sccc3C2)n(C)n1 | -0.1292%
* Nc1nnc(CNc2cc(C3CC(N)C3)ncn2)s1 (centres undefined) | -3.042%
* CCN(Cc1c(F)cccc1F)C(=O)CN | -1.965%
* CC(C)(C)OC(=O)NCC1CNCCCO1 (centres undefined) | 11.36%
* CS(=O)(=O)CC1(CNCc2ccncc2)CC1 | -5.486%
* Cc1cc(C)cc(NC(=O)CNCCCO)c1 | 4.431%
* NC1(c2ccccc2F)CCC1 | 7.509%
* Cn1nnc2cc(C(=O)NC3C=CS(=O)(=O)C3)ccc21 (centres undefined) | 12.43%
* O=C(NCC1CCS(=O)(=O)C1)c1ccccc1 (centres undefined) | 7.935%

4 of the entries, repeated:

{"compound": "CC(=O)NCCCNS(=O)(=O)c1cccc(Cl)c1F", "Percent Effect": -0.8842}
{"compound": "O=C(CN1CCCC1)NCCc1nc(C2CC2)no1", "Percent Effect": -6.253}
{"compound": "CC(CO)CNC(=O)c1cnc(OC(C)C)c(Cl)c1", "stereo": "centres undefined", "Percent Effect": 9.037}
{"compound": "c1cncc(-c2nc(SCC3CCCCO3)n[nH]2)c1", "stereo": "centres undefined", "Percent Effect": 0.4086}

Source: ChEMBL document CHEMBL3988442, “University of Dundee, Small-Polar-MMV Screening Library” (2021).